Assay results reported in patent US20160346402A1.
No constants are given. Whether binding was seen depends on the method and setting. Some results given as binding are weak or reduced against the parent protein; the word gives no strength.

Molecular target: TPP-2618, TweakR-ECD-34-68-hIgGFc-His-R56A (human)
Experiment: ELISA: IgG coated at 1 µg/ml; 8-fold diluted HEK293 supernatant with the TWEAKR(34-68)-Fc-His mutein added; anti-HIS-HRP, Amplex Red; signal [Rfu]

- binding: binds
B1: TPP-2090 (antibody, human IgG1, kappa, V domains shown)
VH: EVQLLESGGGLVQPGGSLRLSCAASGFTFSPYPMIWVRQAPGKGLEWVSYISPSGGSTHYADSVKGRFTISRDNSKNTLYLQMNSLRAEDTAVYYCARGGDTYFDYFDYWGQGTLVTVSS
VL: DIQMTQSPSSLSASVGDRVTITCRASQSISGYLNWYQQKPGKAPKLLIYQASSLQSGVPSRFSGSGSGTDFTLTISSLQPEDFATYYCQQSYTSPFITFGQGTKVEIKR
